Consider two molecules from paper PMC9091245.

For test [1], the target named is T1, forkhead box protein M1 (FOXM1) (human) (UniProt Q08050).
T1 sequence: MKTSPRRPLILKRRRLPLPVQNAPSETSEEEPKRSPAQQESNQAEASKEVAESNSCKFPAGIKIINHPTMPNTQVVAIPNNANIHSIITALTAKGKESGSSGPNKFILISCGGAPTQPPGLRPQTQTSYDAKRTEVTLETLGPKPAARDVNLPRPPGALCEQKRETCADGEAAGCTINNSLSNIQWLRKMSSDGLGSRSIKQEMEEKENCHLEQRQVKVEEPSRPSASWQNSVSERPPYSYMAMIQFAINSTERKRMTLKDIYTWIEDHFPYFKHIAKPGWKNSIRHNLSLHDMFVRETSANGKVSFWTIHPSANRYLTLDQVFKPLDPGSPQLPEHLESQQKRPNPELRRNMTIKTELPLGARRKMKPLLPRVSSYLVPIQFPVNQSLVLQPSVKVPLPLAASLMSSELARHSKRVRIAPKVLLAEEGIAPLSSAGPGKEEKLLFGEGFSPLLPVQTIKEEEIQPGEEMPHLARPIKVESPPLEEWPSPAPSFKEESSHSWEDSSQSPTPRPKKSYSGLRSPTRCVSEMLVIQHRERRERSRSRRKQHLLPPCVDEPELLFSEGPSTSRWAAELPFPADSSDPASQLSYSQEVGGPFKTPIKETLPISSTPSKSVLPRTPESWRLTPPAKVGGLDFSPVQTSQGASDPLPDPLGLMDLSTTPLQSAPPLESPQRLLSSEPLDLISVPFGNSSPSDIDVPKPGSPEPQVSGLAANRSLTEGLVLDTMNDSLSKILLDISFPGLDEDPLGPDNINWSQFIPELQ
As to the kind of experiment: co-IP; HNSCC cells lysed in RIPA buffer at 4 °C; supernatants incubated with primary antibodies overnight at 4 °C, then with protein A/G magnetic beads for 8 h; western blotting; done in both directions. On the technique in general: Immunoblotting shows a protein as a band on a membrane.

Test [2] has as its target T2, family with sequence similarity 64, member A (FAM64A) (human) (UniProt Q9BSJ6).
T2 sequence: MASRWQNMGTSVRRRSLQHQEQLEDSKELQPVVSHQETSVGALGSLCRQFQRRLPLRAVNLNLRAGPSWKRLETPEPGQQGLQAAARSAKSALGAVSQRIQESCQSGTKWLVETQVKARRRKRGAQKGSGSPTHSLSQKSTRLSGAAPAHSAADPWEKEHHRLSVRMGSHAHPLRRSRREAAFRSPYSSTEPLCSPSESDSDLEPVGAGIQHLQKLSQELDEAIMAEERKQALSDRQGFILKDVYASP
The test is described as above.

No constants are given. Whether binding was seen depends on the method and setting. Binding seen in cells or lysates may run through a third protein. Some results given as binding are weak or reduced against the parent protein; the word gives no strength.

B1: family with sequence similarity 64, member A (FAM64A) (protein, UniProt Q9BSJ6 1-248)
chain: T2 sequence
Consider B1, for which the binding entry in test [1] is listed as “binds”.

B2: forkhead box protein M1 (FOXM1) (protein, UniProt Q08050 1-763)
chain: T1 sequence
In the case of B2, the binding result in test [2] is “binds”.
